# Measurements published in patent US11690837B2, “Methods of improving cell-based therapy” (THE REGENTS OF THE UNIVERSITY OF CALIFORNIA, priority 2014, dated 2023).
# For at least one compound, name, drawing or mass did not settle the structure.
# Tested on: Thy1.2+ fibroblasts
# Assay: Flow cytometric analysis of Thy1.2+ cardiac fibroblasts from MI mice
# Format: in vivo
# Conditions: TPPU compared to MI alone
smiles,measurement,value
"CCC(=O)N1CCC(NC(=O)Nc2ccc(OC(F)(F)F)cc2)CC1 [TPPU, 1-trifluoromethoxyphenyl-3-(1-propionylpiperidin-4-yl)urea]",Thy1.2+ fibroblasts,significant decrease
same,proliferative fibroblasts (Ki67+),significant decrease
